Experimental data published in the supplement of paper PMC10849652.
Some of the results follow.

The chains behind the UniProt entries cited, without tags or fusion partners. Where a name states a change or a piece, a line headed by the entry shows the natural chain unless it says otherwise.
UniProt O15111: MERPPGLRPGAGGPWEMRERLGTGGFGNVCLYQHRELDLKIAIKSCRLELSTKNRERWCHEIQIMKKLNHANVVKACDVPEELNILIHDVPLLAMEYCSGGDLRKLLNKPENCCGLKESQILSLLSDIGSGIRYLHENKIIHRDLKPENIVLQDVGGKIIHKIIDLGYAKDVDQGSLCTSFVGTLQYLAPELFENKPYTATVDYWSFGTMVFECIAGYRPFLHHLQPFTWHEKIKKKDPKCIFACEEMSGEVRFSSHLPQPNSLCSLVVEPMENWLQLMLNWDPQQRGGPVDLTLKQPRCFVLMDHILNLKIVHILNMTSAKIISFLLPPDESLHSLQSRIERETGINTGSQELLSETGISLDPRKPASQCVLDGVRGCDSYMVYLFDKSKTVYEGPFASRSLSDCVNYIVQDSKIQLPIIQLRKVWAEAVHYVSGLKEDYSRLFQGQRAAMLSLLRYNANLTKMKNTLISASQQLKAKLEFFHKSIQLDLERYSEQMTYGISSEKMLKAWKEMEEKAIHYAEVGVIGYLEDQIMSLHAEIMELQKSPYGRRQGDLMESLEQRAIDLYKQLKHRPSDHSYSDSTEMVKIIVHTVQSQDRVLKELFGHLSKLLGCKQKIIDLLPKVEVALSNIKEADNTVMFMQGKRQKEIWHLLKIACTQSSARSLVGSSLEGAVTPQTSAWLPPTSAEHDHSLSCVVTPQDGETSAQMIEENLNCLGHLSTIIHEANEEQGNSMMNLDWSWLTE
UniProt Q8WWK9: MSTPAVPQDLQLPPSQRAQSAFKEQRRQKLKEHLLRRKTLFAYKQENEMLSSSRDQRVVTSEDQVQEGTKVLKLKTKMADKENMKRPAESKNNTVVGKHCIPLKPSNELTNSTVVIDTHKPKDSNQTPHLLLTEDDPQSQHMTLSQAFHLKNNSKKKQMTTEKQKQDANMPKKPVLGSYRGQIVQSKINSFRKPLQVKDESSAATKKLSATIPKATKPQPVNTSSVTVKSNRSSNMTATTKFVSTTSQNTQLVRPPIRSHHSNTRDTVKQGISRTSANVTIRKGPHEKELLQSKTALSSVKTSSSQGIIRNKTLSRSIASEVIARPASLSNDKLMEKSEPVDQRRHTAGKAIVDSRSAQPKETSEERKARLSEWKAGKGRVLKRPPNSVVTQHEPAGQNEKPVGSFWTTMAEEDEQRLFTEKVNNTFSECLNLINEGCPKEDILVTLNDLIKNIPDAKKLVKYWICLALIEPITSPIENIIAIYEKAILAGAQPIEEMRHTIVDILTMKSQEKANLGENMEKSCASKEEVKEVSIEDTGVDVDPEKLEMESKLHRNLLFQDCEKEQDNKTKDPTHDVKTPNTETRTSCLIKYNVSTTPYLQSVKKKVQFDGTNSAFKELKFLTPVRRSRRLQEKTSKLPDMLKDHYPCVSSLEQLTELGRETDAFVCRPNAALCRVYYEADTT
UniProt Q9NX63: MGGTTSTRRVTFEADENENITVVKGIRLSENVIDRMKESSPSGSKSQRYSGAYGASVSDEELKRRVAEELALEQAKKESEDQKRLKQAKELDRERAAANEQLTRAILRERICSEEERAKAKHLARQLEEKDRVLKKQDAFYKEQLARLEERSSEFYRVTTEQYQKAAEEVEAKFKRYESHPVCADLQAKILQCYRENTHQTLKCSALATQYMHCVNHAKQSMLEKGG
UniProt Q9Y3D0: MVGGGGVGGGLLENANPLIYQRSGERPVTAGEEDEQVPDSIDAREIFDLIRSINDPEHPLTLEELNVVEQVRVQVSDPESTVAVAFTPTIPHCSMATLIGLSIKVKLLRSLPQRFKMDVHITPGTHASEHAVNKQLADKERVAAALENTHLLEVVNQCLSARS
UniProt Q9H5X1: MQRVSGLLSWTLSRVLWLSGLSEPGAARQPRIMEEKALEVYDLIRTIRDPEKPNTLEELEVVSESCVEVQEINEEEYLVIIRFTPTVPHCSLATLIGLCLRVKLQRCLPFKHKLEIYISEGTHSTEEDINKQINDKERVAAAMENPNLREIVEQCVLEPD
UniProt Q86WJ1: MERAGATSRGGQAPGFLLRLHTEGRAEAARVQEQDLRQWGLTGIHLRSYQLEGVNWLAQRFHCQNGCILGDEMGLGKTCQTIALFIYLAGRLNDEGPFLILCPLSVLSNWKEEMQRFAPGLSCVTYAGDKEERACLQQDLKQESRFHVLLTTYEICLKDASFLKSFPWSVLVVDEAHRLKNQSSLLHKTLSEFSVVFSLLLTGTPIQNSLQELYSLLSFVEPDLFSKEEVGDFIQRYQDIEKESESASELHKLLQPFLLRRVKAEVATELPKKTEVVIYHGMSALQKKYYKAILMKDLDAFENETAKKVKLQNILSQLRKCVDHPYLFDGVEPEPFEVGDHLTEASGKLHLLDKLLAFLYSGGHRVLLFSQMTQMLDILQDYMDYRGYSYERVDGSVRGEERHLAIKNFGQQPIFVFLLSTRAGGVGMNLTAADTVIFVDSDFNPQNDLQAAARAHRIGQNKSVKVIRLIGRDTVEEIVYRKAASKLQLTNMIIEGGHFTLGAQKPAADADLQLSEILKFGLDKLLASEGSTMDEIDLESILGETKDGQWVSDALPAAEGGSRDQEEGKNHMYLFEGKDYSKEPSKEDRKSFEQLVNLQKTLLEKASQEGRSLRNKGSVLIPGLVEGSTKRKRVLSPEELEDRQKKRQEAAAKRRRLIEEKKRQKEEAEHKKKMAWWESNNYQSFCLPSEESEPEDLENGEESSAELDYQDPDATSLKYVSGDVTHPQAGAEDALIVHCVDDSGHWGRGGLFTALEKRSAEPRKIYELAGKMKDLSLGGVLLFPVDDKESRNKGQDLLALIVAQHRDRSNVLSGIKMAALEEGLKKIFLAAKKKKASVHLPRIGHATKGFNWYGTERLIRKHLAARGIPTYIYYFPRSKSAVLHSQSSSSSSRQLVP
UniProt Q8NFW8: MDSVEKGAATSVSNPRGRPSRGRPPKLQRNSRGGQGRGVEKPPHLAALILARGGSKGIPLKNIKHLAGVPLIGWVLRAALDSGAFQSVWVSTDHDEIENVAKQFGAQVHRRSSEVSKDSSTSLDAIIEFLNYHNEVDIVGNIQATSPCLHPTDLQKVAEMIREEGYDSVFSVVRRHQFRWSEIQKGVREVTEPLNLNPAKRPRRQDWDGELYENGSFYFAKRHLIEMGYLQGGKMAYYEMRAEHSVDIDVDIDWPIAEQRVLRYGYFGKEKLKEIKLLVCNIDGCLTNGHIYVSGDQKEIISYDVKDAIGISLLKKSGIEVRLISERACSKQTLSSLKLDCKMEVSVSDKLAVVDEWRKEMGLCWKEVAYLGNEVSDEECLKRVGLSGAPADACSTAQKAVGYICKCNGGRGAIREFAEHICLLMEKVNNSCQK
UniProt Q9BY43: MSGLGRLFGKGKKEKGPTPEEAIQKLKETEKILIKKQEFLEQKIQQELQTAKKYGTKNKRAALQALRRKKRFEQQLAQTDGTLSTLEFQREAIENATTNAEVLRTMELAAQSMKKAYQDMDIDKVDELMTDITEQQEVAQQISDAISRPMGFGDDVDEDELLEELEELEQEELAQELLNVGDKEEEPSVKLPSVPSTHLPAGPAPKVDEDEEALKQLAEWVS
UniProt Q12873: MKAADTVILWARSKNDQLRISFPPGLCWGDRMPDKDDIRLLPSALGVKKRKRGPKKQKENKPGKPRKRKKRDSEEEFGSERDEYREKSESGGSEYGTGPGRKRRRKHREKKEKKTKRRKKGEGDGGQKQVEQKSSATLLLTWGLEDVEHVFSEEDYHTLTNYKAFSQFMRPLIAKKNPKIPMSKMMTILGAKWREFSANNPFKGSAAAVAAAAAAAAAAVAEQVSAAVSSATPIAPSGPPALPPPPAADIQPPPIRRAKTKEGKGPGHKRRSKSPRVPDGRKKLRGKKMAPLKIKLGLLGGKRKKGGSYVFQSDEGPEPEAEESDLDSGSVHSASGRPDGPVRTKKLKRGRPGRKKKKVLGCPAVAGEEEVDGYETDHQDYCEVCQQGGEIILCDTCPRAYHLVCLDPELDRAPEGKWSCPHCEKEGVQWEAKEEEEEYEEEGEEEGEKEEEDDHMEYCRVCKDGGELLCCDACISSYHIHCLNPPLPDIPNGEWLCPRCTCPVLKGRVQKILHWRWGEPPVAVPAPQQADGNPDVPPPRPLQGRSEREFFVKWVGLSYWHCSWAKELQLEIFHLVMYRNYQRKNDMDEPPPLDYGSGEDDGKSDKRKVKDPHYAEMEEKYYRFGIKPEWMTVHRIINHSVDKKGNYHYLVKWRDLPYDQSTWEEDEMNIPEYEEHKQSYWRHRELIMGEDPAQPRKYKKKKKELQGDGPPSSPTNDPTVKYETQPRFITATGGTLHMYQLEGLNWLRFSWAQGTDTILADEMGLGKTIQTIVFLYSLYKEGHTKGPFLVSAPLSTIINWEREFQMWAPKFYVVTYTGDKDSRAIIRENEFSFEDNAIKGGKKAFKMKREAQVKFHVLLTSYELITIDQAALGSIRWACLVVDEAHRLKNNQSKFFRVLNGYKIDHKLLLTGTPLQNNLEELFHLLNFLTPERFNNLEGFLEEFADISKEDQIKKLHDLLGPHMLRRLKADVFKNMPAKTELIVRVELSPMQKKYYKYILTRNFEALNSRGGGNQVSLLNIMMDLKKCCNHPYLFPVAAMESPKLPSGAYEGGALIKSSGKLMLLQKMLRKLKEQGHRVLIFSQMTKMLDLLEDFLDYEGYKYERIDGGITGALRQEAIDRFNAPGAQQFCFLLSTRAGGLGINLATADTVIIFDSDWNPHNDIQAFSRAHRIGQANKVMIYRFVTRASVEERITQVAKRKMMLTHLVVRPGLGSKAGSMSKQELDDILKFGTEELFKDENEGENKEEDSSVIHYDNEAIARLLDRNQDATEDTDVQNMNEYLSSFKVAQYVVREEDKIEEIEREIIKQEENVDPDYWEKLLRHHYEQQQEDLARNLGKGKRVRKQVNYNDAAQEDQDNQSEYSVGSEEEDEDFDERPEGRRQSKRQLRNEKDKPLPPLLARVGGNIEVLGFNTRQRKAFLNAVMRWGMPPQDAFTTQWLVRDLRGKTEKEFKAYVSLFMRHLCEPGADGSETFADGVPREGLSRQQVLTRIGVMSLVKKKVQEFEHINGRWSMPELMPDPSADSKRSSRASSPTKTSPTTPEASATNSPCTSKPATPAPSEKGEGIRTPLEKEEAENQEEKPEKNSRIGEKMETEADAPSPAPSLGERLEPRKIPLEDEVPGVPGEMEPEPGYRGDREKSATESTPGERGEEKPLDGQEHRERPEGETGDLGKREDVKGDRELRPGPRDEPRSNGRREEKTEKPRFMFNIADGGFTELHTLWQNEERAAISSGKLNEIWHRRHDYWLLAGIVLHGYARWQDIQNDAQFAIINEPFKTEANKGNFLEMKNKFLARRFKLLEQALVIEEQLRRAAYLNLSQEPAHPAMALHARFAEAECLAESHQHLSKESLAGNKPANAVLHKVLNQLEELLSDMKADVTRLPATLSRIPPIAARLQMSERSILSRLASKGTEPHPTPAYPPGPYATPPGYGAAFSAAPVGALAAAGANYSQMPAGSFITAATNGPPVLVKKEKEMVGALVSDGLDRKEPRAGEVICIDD
UniProt Q96FZ7: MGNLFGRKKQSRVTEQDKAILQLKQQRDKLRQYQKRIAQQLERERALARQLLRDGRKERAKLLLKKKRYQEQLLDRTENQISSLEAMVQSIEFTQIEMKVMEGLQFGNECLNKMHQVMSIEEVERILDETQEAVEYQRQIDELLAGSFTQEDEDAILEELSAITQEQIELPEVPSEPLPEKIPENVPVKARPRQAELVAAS
UniProt Q99828: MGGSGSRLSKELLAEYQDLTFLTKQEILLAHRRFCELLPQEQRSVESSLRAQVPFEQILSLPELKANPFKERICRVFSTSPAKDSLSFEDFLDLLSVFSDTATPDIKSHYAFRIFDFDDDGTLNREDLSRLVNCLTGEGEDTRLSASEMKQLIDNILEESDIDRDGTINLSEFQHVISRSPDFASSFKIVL
UniProt Q9NRG0: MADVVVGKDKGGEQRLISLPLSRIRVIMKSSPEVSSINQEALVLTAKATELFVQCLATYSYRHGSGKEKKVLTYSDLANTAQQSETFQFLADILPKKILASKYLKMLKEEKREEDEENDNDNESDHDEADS
UniProt Q9Y259: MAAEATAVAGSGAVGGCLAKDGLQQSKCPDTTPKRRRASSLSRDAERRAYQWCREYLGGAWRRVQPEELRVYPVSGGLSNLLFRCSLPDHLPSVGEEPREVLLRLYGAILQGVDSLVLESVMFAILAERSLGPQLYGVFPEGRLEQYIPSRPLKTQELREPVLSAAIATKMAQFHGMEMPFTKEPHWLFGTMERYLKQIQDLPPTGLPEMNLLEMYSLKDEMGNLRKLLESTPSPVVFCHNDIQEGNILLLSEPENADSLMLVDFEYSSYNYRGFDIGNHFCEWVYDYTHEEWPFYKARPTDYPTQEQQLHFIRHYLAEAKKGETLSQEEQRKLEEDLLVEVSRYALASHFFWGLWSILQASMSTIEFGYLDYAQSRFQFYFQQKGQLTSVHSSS

What was measured:
Assay in all cases: log2 fold change, soluble protein after heating vs DMSO (PISA); higher = thermal stabilisation; K562 lysate, 10 uM; active = over 0.2 and 3.5 SD of the protein, either way, in both replicates (recomputed)
[1] = compound: C#Cc1cccc(Nc2ncnc3cc(OCCOC)c(OCCOC)cc23)c1 [erlotinib]
In short: (§1)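 K562 pellets were dounce-homogenised in PBS pH 7.4 with 1 mM MgCl2, and the crude extract at 1 mg/mL protein was treated with 10 μM compound for 30 min. Aliquots were heated for 3 min across 48°C-58°C, pooled, and brought to 0.5% NP-40 at 4°C; soluble protein was the supernatant after 21,000xg for 90 min. Soluble protein was quantified by TMTpro 16plex LC-MS/MS with channel sums equalised, and reported as log2 fold change in thermal stability against DMSO controls, with values from duplicates.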

[2] = compound: C/C(=N\NC(=O)C1=CC(=CC=C1)S(=O)(=O)N2CCOCC2)/C3=C(C=CC(=C3)Cl)O
In short: as §1

[3] = compound: C1=CC(=CC=C1C2=NC3=C(N2)C=C(C=C3)C(=O)N)OC4=CC=C(C=C4)Cl
In short: as §1

[4] = compound: C1=CC2=C(C=CC(=C2)/C=C\3/C(=O)NC(=NCC4=CC=CS4)S3)N=C1
In short: as §1

[5] = compound: C1=CC2=NC=CN=C2C=C1/C=C/3\C(=O)NC(=O)S3
In short: as §1

[6] = compound: C1=CC=C(C=C1)C2=NC(=C(N2)C3=CC=NC=C3)C4=CC(=C(C=C4)Cl)O
In short: as §1

[7] = compound: C1=CC=C2C(=C1)C3=NNC4=CC=CC(=C43)C2=O
In short: as §1

[8] = compound: C1CCN(C1)C(=O)NC2=CC=CC(=C2)NC3=NC=C(C(=N3)NCCC4=CN=CN4)Br
In short: as §1

[9] = compound: C1CN(CCC1(CC2=CC=C(C=C2)Cl)N)C3=NC=NC4=C3C=CN4
In short: as §1

[10] = compound: C1COCCN1CCN2C3=CC=CC=C3N=C2NC(=O)C4=CC(=CC=C4)[N+](=O)[O-] [IRAK-1-4 Inhibitor I]
In short: as §1

[11] = compound: C=CC(=O)N1CCC[C@@H](n2nc(-c3ccc(Oc4ccccc4)cc3)c3c(N)ncnc32)C1 [ibrutinib]
In short: as §1

[12] = compound: CC(=O)c1cnc2ccc(-c3cc(Cl)c(O)c(Cl)c3)nc2c1N[C@H]1CC[C@H](CN(C)C)CC1
In short: as §1

[13] = compound: CC(C)(C)Cn1c(N)nc2ccc(-c3[nH]c(C(C)(C)C)nc3-c3ccc(F)cc3)nc21 [ralimetinib]
In short: as §1

[14] = compound: CC(C)(O)CC(=O)NCCn1ccc2ncnc(Nc3ccc(Oc4cccc(C(F)(F)F)c4)c(Cl)c3)c21
In short: as §1

[15] = compound: CC(C)C1=C2N=C(C=C(N2N=C1)NCC3=CC=CC=C3)NCCCCCCN
In short: as §1

[16] = compound: CC1=C(C(CC(=O)N1)C2=CC=C(C=C2)C(F)(F)F)C(=O)NC3=C(C=C4C(=C3)C=NN4)F
In short: as §1

[17] = compound: CC1=C(C2=C(C=C1)C(=O)C3=CC=CC=C3N2CCCN)C
In short: as §1

[18] = compound: CC1=C(C=C(C=C1)NC(=O)C2=CC(=CC=C2)C(C)(C)C#N)NC3=CC4=C(C=C3)N=CN(C4=O)C
In short: as §1

[19] = compound: CC1=C(C=C(C=C1)NC(=O)C2=CC(=CC=C2)N(C)C)NC(=O)C3=CC=C(C=C3)O
In short: as §1

[20] = compound: CC1=CC=C(C=C1)SC2=C3C=C(SC3=CN=C2)C(=O)N
In short: as §1

Measured: log2 fold change

CHUK (UniProt O15111)
inactive: [1] -0.005 | [2] 0.114 | [3] -0.076 | [4] 0.01 | [5] -0.019 | [6] 0.022 | [7] 0.015 | [8] -0.002 | [9] -0.002 | [10] -0.044 | [11] 0.034 | [12] 0.04 | [13] 0.063 | [14] 0.071 | [15] 0.014 | [16] -0.047 | [17] -0.014 | [18] -0.013 | [19] 0.009 | [20] -0.016

CHCHD1 (UniProt Q96BP2)
inactive: [1] -0.002 | [2] -0.7 | [3] 0.029 | [4] -0.053 | [5] 0.005 | [6] 0.021 | [7] -0.002 | [8] 0.04 | [9] 0.043 | [10] 0.068 | [11] -0.004 | [12] 0.021 | [13] 0.047 | [14] -0.101 | [15] -0.059 | [16] 0 | [17] -0.081 | [18] -0.014 | [19] -0.032 | [20] -0.055

CKAP2 (UniProt Q8WWK9)
active: [7] -0.611
inactive: [1] 0 | [2] -0.158 | [3] -0.062 | [4] -0.148 | [5] -0.015 | [6] 0.006 | [8] -0.007 | [9] 0.046 | [10] 0.014 | [11] -0.065 | [12] -0.057 | [13] -0.017 | [14] 0.016 | [15] -0.053 | [16] -0.012 | [17] -0.004 | [18] 0.003 | [19] -0.027 | [20] 0.03

Pulled one by one from above, 2 records:
CHCHD1 (UniProt Q96BP2)
inactive: [1] -0.002 | [2] -0.7 | [3] 0.029 | [4] -0.053 | [5] 0.005 | [6] 0.021 | [7] -0.002 | [8] 0.04 | [9] 0.043 | [10] 0.068 | [11] -0.004 | [12] 0.021 | [13] 0.047 | [14] -0.101 | [15] -0.059 | [16] 0 | [17] -0.081 | [18] -0.014 | [19] -0.032 | [20] -0.055

CHUK (UniProt O15111)
inactive: [1] -0.005 | [2] 0.114 | [3] -0.076 | [4] 0.01 | [5] -0.019 | [6] 0.022 | [7] 0.015 | [8] -0.002 | [9] -0.002 | [10] -0.044 | [11] 0.034 | [12] 0.04 | [13] 0.063 | [14] 0.071 | [15] 0.014 | [16] -0.047 | [17] -0.014 | [18] -0.013 | [19] 0.009 | [20] -0.016

Continuation:

CHCHD3 (UniProt Q9NX63)
inactive: [1] 0.011 | [2] 0.021 | [3] -0.091 | [4] -0.01 | [5] -0.008 | [6] -0.017 | [7] -0.06 | [8] 0.007 | [9] -0.032 | [10] 0.026 | [11] 0.003 | [12] 0.006 | [13] -0.01 | [14] -0.035 | [15] -0.009 | [16] -0.001 | [17] 0.044 | [18] -0.005 | [19] -0.014 | [20] 0.009

CIP2A (UniProt Q8TCG1)
inactive: [1] 0.057 | [2] 0.18 | [3] -0.086 | [4] 0.034 | [5] -0.019 | [6] 0.019 | [7] -0.11 | [8] -0.002 | [9] 0.02 | [10] 0.007 | [11] 0.022 | [12] 0.001 | [13] 0.052 | [14] -0.046 | [15] -0.03 | [16] 0.009 | [17] 0.003 | [18] 0 | [19] 0.059 | [20] -0.033

CIAO2B (UniProt Q9Y3D0)
inactive: [1] 0.055 | [2] 0.014 | [3] -0.014 | [4] 0.085 | [5] -0.089 | [6] -0.062 | [7] -0.044 | [8] 0.072 | [9] 0.012 | [10] -0.004 | [11] 0.014 | [12] -0.026 | [13] -0.012 | [14] -0.023 | [15] 0.033 | [16] -0.024 | [17] -0.001 | [18] 0.048 | [19] 0.031 | [20] -0.033

CIAO2A (UniProt Q9H5X1)
inactive: [1] -0.052 | [2] 0.029 | [3] 0.03 | [4] -0.056 | [5] -0.071 | [6] -0.025 | [7] -0.007 | [8] 0.04 | [9] 0.009 | [10] 0.032 | [11] 0.005 | [12] 0.044 | [13] 0.053 | [14] -0.034 | [15] 0.056 | [16] 0.032 | [17] -0.06 | [18] -0.026 | [19] -0.067 | [20] -0.02

CHD1L (UniProt Q86WJ1)
inactive: [1] -0.017 | [2] 0.007 | [3] -0.028 | [4] 0.036 | [5] 0.031 | [6] -0.014 | [7] -0.054 | [8] -0.012 | [9] 0.013 | [10] 0.003 | [11] -0.032 | [12] 0.03 | [13] 0.024 | [14] -0.011 | [15] -0.001 | [16] 0.008 | [17] -0.043 | [18] 0.029 | [19] 0.061 | [20] 0.019

CMAS (UniProt Q8NFW8)
inactive: [1] 0.018 | [2] -0.047 | [3] 0.002 | [4] 0.029 | [5] -0.007 | [6] 0.002 | [7] 0.015 | [8] 0.007 | [9] 0.023 | [10] -0.03 | [11] 0 | [12] -0.017 | [13] -0.005 | [14] -0.008 | [15] 0.025 | [16] 0.007 | [17] -0.009 | [18] 0.002 | [19] 0.011 | [20] 0.039

CHMP4A isoform 2 (UniProt Q9BY43)
inactive: [1] -0.046 | [2] 0.008 | [3] 0.018 | [4] -0.01 | [5] -0.018 | [6] 0.021 | [7] 0.033 | [8] 0.014 | [9] -0.007 | [10] -0.016 | [11] -0.002 | [12] 0.011 | [13] 0.03 | [14] -0.041 | [15] 0.036 | [16] 0.011 | [17] -0.02 | [18] 0.036 | [19] -0.03 | [20] -0.007

CHD3 isoform 3 (UniProt Q12873)
inactive: [1] 0.003 | [2] -0.022 | [3] -0.025 | [4] -0.01 | [5] 0.003 | [6] 0.002 | [7] -0.017 | [8] -0.058 | [9] 0.005 | [10] -0.032 | [11] -0.003 | [12] 0.021 | [13] -0.01 | [14] -0.021 | [15] -0.001 | [16] 0.019 | [17] -0.018 | [18] 0 | [19] -0.013 | [20] 0.007

CHMP6 (UniProt Q96FZ7)
inactive: [1] -0.049 | [2] -0.001 | [3] -0.047 | [4] -0.021 | [5] 0.059 | [6] 0 | [7] 0.068 | [8] -0.038 | [9] -0.003 | [10] -0.029 | [11] 0.027 | [12] 0.018 | [13] -0.045 | [14] -0.02 | [15] 0.003 | [16] 0.069 | [17] -0.015 | [18] 0.111 | [19] -0.052 | [20] -0.03

CIB1 (UniProt Q99828)
inactive: [1] -0.039 | [2] 0.126 | [3] 0.013 | [4] 0.042 | [5] -0.227 | [6] 0.023 | [7] 0.02 | [8] 0.045 | [9] 0.073 | [10] 0.026 | [11] 0.096 | [12] -0.137 | [13] 0.004 | [14] -0.056 | [15] -0.027 | [16] 0.007 | [17] -0.041 | [18] 0.042 | [19] -0.003 | [20] -0.066

CHRAC1 (UniProt Q9NRG0)
inactive: [1] 0.059 | [2] -0.164 | [3] -0.058 | [4] 0.02 | [5] 0.054 | [6] 0.027 | [7] 0.037 | [8] -0.008 | [9] 0.043 | [10] 0.086 | [11] -0.035 | [12] 0.006 | [13] -0.043 | [14] -0.039 | [15] 0.14 | [16] 0.017 | [17] -0.017 | [18] -0.006 | [19] -0.03 | [20] 0.047

CHKB (UniProt Q9Y259)
inactive: [1] -0.069 | [2] 0.024 | [3] 0.022 | [4] -0.044 | [5] 0.031 | [6] 0.031 | [7] 0.016 | [8] -0.032 | [9] 0.083 | [10] 0.029 | [11] 0.078 | [12] 0.013 | [13] 0.021 | [14] -0.032 | [15] 0.017 | [16] 0.044 | [17] -0.009 | [18] 0.095 | [19] 0.055 | [20] -0.025
